Reference: PubChem BioAssay AID1224828 (NIAID, 2016)
The whole screen tested about 17,000 reagents; this is a part drawn at random. Of all reagents, 762 (4.5%) got an active call. 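Active calls include both raised and lowered p65 entry, mostly lowered; wells with fewer than 50 cells lack a z-score.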 Raw values vary from plate to plate and are shown uncorrected.

Aim: 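Find genes required for NF-kappaB p65 moving into the nucleus after LPS in mouse macrophages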 (primary screen)
Cells: mouse RAW264.7 G9 macrophage reporter cells (GFP-p65, Tnf promoter-mCherry)
Reagents: siRNA pool against mouse genes, 100 nM
Time to read-out: 2 days siRNA transfection, then 40 min LPS before fixation
Conditions: LPS (Salmonella minnesota R595) at 10 ng/ml
Detection: 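Microscopy ratio of nuclear to perinuclear-ring GFP-p65 signal, scaled to the plate median; gene score is the average of two replicate robust z-scores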
Scale: p65 translocation robust z-score: higher = more nuclear NF-kappaB p65 after LPS than the plate median; nuclear/cytoplasmic p65 ratio: higher = more nuclear NF-kappaB p65
Call rule: 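Called active when z exceeds 3.3 or falls under -1.56 (median of Tlr4 controls), giving activity score of at least 50; no calls for control wells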
Calls: active = hit (p65 shift raised or lowered); inactive = no clear change

Silencing of Taf1d (GeneID 75316) came out at: nuclear/cytoplasmic p65 ratio, rep 1 = 1.13; nuclear/cytoplasmic p65 ratio, rep 2 = 1.16; low cell count flag fewer than 50 cells per well; well left out of scoring; inactive.
Or7g16 (GeneID 258598) showed p65 translocation robust z-score 1.57; nuclear/cytoplasmic p65 ratio, rep 1 = 1.66; nuclear/cytoplasmic p65 ratio, rep 2 = 1.17; low cell count flag enough cells to score; inactive.
Against Rps6ka6 (GeneID 67071), the entry reads nuclear/cytoplasmic p65 ratio, rep 1 = 1.67; nuclear/cytoplasmic p65 ratio, rep 2 = 1.29; low cell count flag fewer than 50 cells per well; well left out of scoring; inactive.
Arl10 (GeneID 56795) showed p65 translocation robust z-score 0.87; nuclear/cytoplasmic p65 ratio, rep 1 = 1.56; nuclear/cytoplasmic p65 ratio, rep 2 = 1.8; low cell count flag enough cells to score; inactive.
For Acp1 (GeneID 11431) the deposit lists p65 translocation robust z-score -0.42; nuclear/cytoplasmic p65 ratio, rep 1 = 1.58; nuclear/cytoplasmic p65 ratio, rep 2 = 1.53; low cell count flag enough cells to score; inactive.
After knock-down of Gm5108 (GeneID 330097), the record shows p65 translocation robust z-score 0.66; nuclear/cytoplasmic p65 ratio, rep 1 = 1.81; nuclear/cytoplasmic p65 ratio, rep 2 = 1.65; low cell count flag enough cells to score; inactive.
Silencing of Tmem106b (GeneID 71900) resulted in: nuclear/cytoplasmic p65 ratio, rep 1 = 0.986; nuclear/cytoplasmic p65 ratio, rep 2 = 1.42; low cell count flag fewer than 50 cells per well; well left out of scoring; inactive.
With knock-down of Apeh (GeneID 235606), the record shows p65 translocation robust z-score 1.3; nuclear/cytoplasmic p65 ratio, rep 1 = 1.89; nuclear/cytoplasmic p65 ratio, rep 2 = 1.74; low cell count flag enough cells to score; inactive.
Fabp2 (GeneID 14079) showed p65 translocation robust z-score -0.62; nuclear/cytoplasmic p65 ratio, rep 1 = 1.34; nuclear/cytoplasmic p65 ratio, rep 2 = 1.32; low cell count flag enough cells to score; inactive.
Against Impact (GeneID 16210), the values are p65 translocation robust z-score -0.68; nuclear/cytoplasmic p65 ratio, rep 1 = 1.58; nuclear/cytoplasmic p65 ratio, rep 2 = 1.35; low cell count flag enough cells to score; inactive.
Galk2 (GeneID 69976) scored p65 translocation robust z-score -0.93; nuclear/cytoplasmic p65 ratio, rep 1 = 1.53; nuclear/cytoplasmic p65 ratio, rep 2 = 1.27; low cell count flag enough cells to score; inactive.
Against Psmg2 (GeneID 107047) the deposit lists nuclear/cytoplasmic p65 ratio, rep 1 = 1.05; nuclear/cytoplasmic p65 ratio, rep 2 = 1.2; low cell count flag fewer than 50 cells per well; well left out of scoring; inactive.

2 consecutive reagents already listed:
Fabp2 (GeneID 14079) → p65 translocation robust z-score: -0.62; nuclear/cytoplasmic p65 ratio, rep 1: 1.34; nuclear/cytoplasmic p65 ratio, rep 2: 1.32; low cell count flag: enough cells to score; call: inactive
Impact (GeneID 16210) → p65 translocation robust z-score: -0.68; nuclear/cytoplasmic p65 ratio, rep 1: 1.58; nuclear/cytoplasmic p65 ratio, rep 2: 1.35; low cell count flag: enough cells to score; call: inactive

The listing continues:
Against Timm9 (GeneID 30056), the entry reads p65 translocation robust z-score -0.11; nuclear/cytoplasmic p65 ratio, rep 1 = 1.35; nuclear/cytoplasmic p65 ratio, rep 2 = 1.19; low cell count flag enough cells to score; inactive.
Silencing of Prima1 (GeneID 170952) came out at: p65 translocation robust z-score -0.7; nuclear/cytoplasmic p65 ratio, rep 1 = 1.27; nuclear/cytoplasmic p65 ratio, rep 2 = 1.15; low cell count flag enough cells to score; inactive.
With knock-down of Chd1 (GeneID 12648) the results were p65 translocation robust z-score 0.76; nuclear/cytoplasmic p65 ratio, rep 1 = 1.5; nuclear/cytoplasmic p65 ratio, rep 2 = 1.53; low cell count flag enough cells to score; inactive.
Knock-down of Ccdc92 (GeneID 215707) gave: p65 translocation robust z-score -0.83; nuclear/cytoplasmic p65 ratio, rep 1 = 1.43; nuclear/cytoplasmic p65 ratio, rep 2 = 1.45; low cell count flag enough cells to score; inactive.
For Ythdf1 (GeneID 228994), the values are p65 translocation robust z-score -0.14; nuclear/cytoplasmic p65 ratio, rep 1 = 1.4; nuclear/cytoplasmic p65 ratio, rep 2 = 1.24; low cell count flag enough cells to score; inactive.
4930412C18Rik (GeneID 320152) scored p65 translocation robust z-score 0.65; nuclear/cytoplasmic p65 ratio, rep 1 = 1.42; nuclear/cytoplasmic p65 ratio, rep 2 = 1.57; low cell count flag enough cells to score; inactive.
Against Arpc5 (GeneID 67771), the entry reads p65 translocation robust z-score -0.61; nuclear/cytoplasmic p65 ratio, rep 1 = 1.36; nuclear/cytoplasmic p65 ratio, rep 2 = 1.58; low cell count flag enough cells to score; inactive.
Gnat2 (GeneID 14686) scored p65 translocation robust z-score 0.14; nuclear/cytoplasmic p65 ratio, rep 1 = 1.52; nuclear/cytoplasmic p65 ratio, rep 2 = 1.61; low cell count flag enough cells to score; inactive.
With knock-down of Swt1 (GeneID 66875), the record shows p65 translocation robust z-score -2.52; nuclear/cytoplasmic p65 ratio, rep 1 = 1.06; nuclear/cytoplasmic p65 ratio, rep 2 = 1.05; low cell count flag enough cells to score; active.
After knock-down of Fam98a (GeneID 72722) the results were p65 translocation robust z-score 1.55; nuclear/cytoplasmic p65 ratio, rep 1 = 1.37; nuclear/cytoplasmic p65 ratio, rep 2 = 1.67; low cell count flag enough cells to score; inactive.
For Chad (GeneID 12643), the values are p65 translocation robust z-score -1.51; nuclear/cytoplasmic p65 ratio, rep 1 = 1.33; nuclear/cytoplasmic p65 ratio, rep 2 = 1.57; low cell count flag enough cells to score; inactive.
Gpx5 (GeneID 14780) gave p65 translocation robust z-score 2.33; nuclear/cytoplasmic p65 ratio, rep 1 = 1.41; nuclear/cytoplasmic p65 ratio, rep 2 = 1.89; low cell count flag enough cells to score; inactive.
Zfp946 (GeneID 74149) gave p65 translocation robust z-score -1.42; nuclear/cytoplasmic p65 ratio, rep 1 = 1.3; nuclear/cytoplasmic p65 ratio, rep 2 = 1.15; low cell count flag enough cells to score; inactive.
With knock-down of Slc26a7 (GeneID 208890) the results were p65 translocation robust z-score -0.11; nuclear/cytoplasmic p65 ratio, rep 1 = 1.3; nuclear/cytoplasmic p65 ratio, rep 2 = 1.24; low cell count flag enough cells to score; inactive.
4931406H21Rik (GeneID 77592) showed p65 translocation robust z-score -1.36; nuclear/cytoplasmic p65 ratio, rep 1 = 1.1; nuclear/cytoplasmic p65 ratio, rep 2 = 1.08; low cell count flag enough cells to score; inactive.
